Source: patent publication US20250084044A1, “PROTOPORPHYRINOGEN OXIDASE INHIBITORS” (Enko Chem, Inc., priority 2022, published 2025)
Some results were stated once for a whole list of compounds, not compound by compound.

Target: T1, mutant ΔG210-AmPPO (Amaranthus tuberculatus, UniProt Q0NZW9, DEL211-211, form not given)
T1 sequence (Q0NZW9 with tags, fused parts or gaps DEL211-211): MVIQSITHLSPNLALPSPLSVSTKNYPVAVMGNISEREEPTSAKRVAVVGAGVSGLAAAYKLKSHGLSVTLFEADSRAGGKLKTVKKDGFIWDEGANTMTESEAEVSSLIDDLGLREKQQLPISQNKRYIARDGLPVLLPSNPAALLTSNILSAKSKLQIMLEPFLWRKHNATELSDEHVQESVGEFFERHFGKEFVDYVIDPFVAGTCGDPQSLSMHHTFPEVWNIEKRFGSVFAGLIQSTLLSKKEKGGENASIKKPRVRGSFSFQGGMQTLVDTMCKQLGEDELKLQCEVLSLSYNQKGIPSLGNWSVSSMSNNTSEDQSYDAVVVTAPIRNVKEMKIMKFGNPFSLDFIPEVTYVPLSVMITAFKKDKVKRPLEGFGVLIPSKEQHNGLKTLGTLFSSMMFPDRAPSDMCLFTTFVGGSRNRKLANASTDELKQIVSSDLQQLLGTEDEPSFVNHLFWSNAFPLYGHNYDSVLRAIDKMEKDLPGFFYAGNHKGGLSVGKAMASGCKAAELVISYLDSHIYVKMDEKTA
Assay type: biochemical, Amaranthus tuberculantum
Details: Example 17b; read-out: IC50 in the AG210 PPO in vitro assay

Row | Compound | IC50 [nM]
1 | COC(=O)C1CN(C(=O)CN2C(=O)C(F)(F)Oc3cc(F)c(-c4c(F)cc(F)c(F)c4F)cc32)C1 [Compound 164, methyl 1-(2-(2,2,7-trifluoro-3-oxo-6-(2,3,4,6-tetrafluorophenyl)-2,3-dihydro-4H-benzo[b][1,4]oxazin-4-yl)acetyl)azetidine-3-carboxylate] | < 100
2 | O=C(O)C1CN(C(=O)CN2C(=O)C(F)(F)Oc3cc(F)c(-c4c(F)cc(F)c(F)c4F)cc32)C1 [Compound 165, 1-(2-(2,2,7-trifluoro-3-oxo-6-(2,3,4,6-tetrafluorophenyl)-2,3-dihydro-4H-benzo[b][1,4]oxazin-4-yl)acetyl)azetidine-3-carboxylic acid] | < 1000
3 | COC(=O)CCN(C)C(=O)CN1C(=O)C(F)(F)Oc2cc(F)c(-c3cc(F)c(F)c(F)c3F)cc21 [Compound 166, methyl 3-(N-methyl-2-(2,2,7-trifluoro-3-oxo-6-(2,3,4,5-tetrafluorophenyl)-2,3-dihydro-4H-benzo[b][1,4]oxazin-4-yl)acetamido)propanoate] | < 1000
4 | COC(=O)C1CN(C(=O)CN2C(=O)C(F)(F)Oc3cc(F)c(-c4cc(F)c(F)c(F)c4F)cc32)C1 [Compound 168, methyl 1-(2-(2,2,7-trifluoro-3-oxo-6-(2,3,4,5-tetrafluorophenyl)-2,3-dihydro-4H-benzo[b][1,4]oxazin-4-yl)acetyl)azetidine-3-carboxylate] | < 1000
5 | O=C(O)C1CN(C(=O)CN2C(=O)C(F)(F)Oc3cc(F)c(-c4cc(F)c(F)c(F)c4F)cc32)C1 [Compound 169, 1-(2-(2,2,7-trifluo-3-oxo-6-(2,3,4,5-tetrafluorophenyl)-2,3-dihydro-4H-benzo[b][1,4]oxazin-4-yl)acetyl)azetidine-3-carboxylic acid] | < 1000
6 | C=C(C(=O)OC)N1C(=O)C(F)(F)Oc2cc(F)c(-c3c(F)c(F)c(F)c(F)c3F)c(F)c21 [Compound 178, methyl 2-(2,2,5,7-tetrafluoro-3-oxo-6-(perfluorophenyl)-2,3-dihydro-4H-benzo[b][1,4]oxazin-4-yl)acrylate] | < 100
7 | COC(=O)[C@H](OC)N1C(=O)C(F)(F)Oc2cc(F)c(-c3c(F)c(F)c(F)c(F)c3F)cc21 [Compound 185, methyl (S)-2-methoxy-2-(2,2,7-trifluoro-3-oxo-6-(perfluorophenyl)-2,3-dihydro-4H-benzo[b][1,4]oxazin-4-yl)acetate] | < 100
8 | COC(=O)[C@@H](OC)N1C(=O)C(F)(F)Oc2cc(F)c(-c3c(F)c(F)c(F)c(F)c3F)cc21 [Compound 186, methyl (R)-2-methoxy-2-(2,2,7-trifluoro-3-oxo-6-(perfluorophenyl)-2,3-dihydro-4H-benzo[b][1,4]oxazin-4-yl)acetate] | < 100
